Data published in patent US11065277B2, “Method of ameliorating side effects of sickle cell disease treatments” (ALBERT EINSTEIN COLLEGE OF MEDICINE, priority 2015, dated 2021).
For at least one compound, name, drawing or mass did not settle the structure.

Tested on: BERK low gamma
Assay: Systemic vaso-occlusion and systemic flow in low gamma BERK
Type: in vivo, mouse
Description: Just as with supra-perfusion therapy, a sickle therapy induced toxicity is apparent in the quercetin-based antioxidant therapy of sickle cell disease. […] However, this nearly complete clearance of the vaso-occlusion appears to induces a toxicity to such treated low gamma BERK, as the animal die after six to eight hrs. after infusing quercetin. Accordingly, it was concluded that antisickling, or antioxidant or antiadhesive therapies, need to be combined with anti-anemia therapy to protect the brain tissues from hypoxic effects as the systemic perfusion is improved as vasoconstrictive effects are reduced.
A lower dosage of the therapeutic that only marginally reduces the severity of the disease as reflected by systemic vaso-occlusion can still moderate the severity of the disease to some degree without creating an oxygen debt in the brain (i.e. the pathology of the disease as reflected by CBF and BOLD, in an organ specific manner).

## O=c1c(O[C@@H]2O[C@H](CO)[C@@H](O)[C@H](O)[C@H]2O)c(-c2ccc(O)c(O)c2)oc2cc(O)cc(O)c12 [iso-quercetin]
  therapeutic efficacy for SCD (vaso-occlusion): not seen
